Laboratory results: patent US11149023B2, “Substituted triazole derivatives and uses thereof” (Bayer Pharma Aktiengesellschaft, priority 2017, dated 2021)
At least one compound was matched to its structure with a doubt left.

Protein sequences, listed by entry. Tags and fused reporters are not part of them.
UniProt P37288, whole entry: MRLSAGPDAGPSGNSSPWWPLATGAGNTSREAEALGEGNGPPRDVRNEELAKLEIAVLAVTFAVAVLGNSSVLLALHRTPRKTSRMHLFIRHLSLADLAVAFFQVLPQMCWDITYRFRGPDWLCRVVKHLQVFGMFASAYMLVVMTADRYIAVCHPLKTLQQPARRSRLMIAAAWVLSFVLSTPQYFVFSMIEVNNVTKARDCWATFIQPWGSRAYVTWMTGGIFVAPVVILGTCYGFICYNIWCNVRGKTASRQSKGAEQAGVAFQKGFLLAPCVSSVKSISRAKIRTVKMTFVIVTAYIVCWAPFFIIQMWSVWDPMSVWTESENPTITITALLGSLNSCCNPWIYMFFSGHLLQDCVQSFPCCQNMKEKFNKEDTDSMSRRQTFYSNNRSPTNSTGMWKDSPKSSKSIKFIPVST

Molecular target: human V1a receptor (Homo sapiens (Human), UniProt P37288)
Test: Cellular in vitro assay for determining vasopressin receptor activity (V1a, aequorin luminescence)
Assay type: cell-based
Details: selectivity, IC50 hV2 divided by IC50 hV1a
Procedure: B-1. Cellular In Vitro Assay for Determining Vasopressin Receptor Activity
The identification of agonists and antagonists of the V1a and V2 vasopressin receptors from humans, rats and dogs as well as the quantification of the activity of the compounds of the invention is carried out using recombinant cell lines. These cell lines originally derive from a hamster's ovary epithelial cell (Chinese Hamster Ovary, CHO K1, ATCC: American Type Culture Collection, Manassas, Va. 20108, USA). The test cell lines constitutively express the human, rat or dog V1a or V2 receptors. […] The resulting vasopressin receptor cells react to stimulation of the recombinantly expressed Via receptors by intracellular release of calcium ions, which can be quantified by the resulting photoprotein luminescence. […] The bioluminescence of the cell lines is detected using a suitable luminometer [Milligan G, Marshall F, Rees S, Trends in Pharmacological Sciences 17, 235-237 (1996)]. […]
On the day before the assay, the cells are plated out in culture medium (DMEM/F12, 2% FCS, 2 mM glutamine, 10 mM HEPES, 5 μg/ml coelenterazine) in 384-well microtiter plates and kept in a cell incubator (96% humidity, 5% v/v CO2, 37° C.). […] The resulting light signal is measured immediately in a luminometer. […]

SMILES | ratio IC50 hV2/hV1a
CC(C)(C)OC(=O)N1CCC(C(=O)NC(Cn2c(-c3ccc(Cl)cc3)nn(Cc3ncn(-c4ncccc4Cl)n3)c2=O)C(F)(F)F)C1 (centres unmarked) [Example 23, tert-Butyl 3-({3-[3-(4-chlorophenyl)-1-{[1-(3-chloropyridin-2-yl)-1H-1,2,4-triazol-3-yl]methyl}-5-oxo-1,5-dihydro-4H-1,2,4-triazol-4-yl]-1,1,1-trifluoropropan-2-yl}carbamoyl)pyrrolidine-1-carboxylate] | 71.8
CC(C)(C)OC(=O)NC1(C(=O)NC(Cn2c(-c3ccc(Cl)cc3)nn(Cc3ncn(-c4ncccc4Cl)n3)c2=O)C(F)(F)F)CCC1 (centres unmarked) [Example 28, tert-Butyl [1-({3-[3-(4-chlorophenyl)-1-{[1-(3-chloropyridin-2-yl)-1H-1,2,4-triazol-3-yl]methyl}-5-oxo-1,5-dihydro-4H-1,2,4-triazol-4-yl]-1,1,1-trifluoropropan-2-yl}carbamoyl)cyclobutyl]-carbamate] | 12.2
